These are yes or no findings as the source states them, for the method shown. In cells and extracts the contact can be indirect. A yes stands for co-enrichment or nearness to the bait. Other partners may have been found.
B1: Interferon-induced, double-stranded RNA-activated protein kinase, P19525 1-551 (protein)
chain: MAGDLSAGFFMEELNTYRQKQGVVLKYQELPNSGPPHDRRFTFQVIIDGREFPEGEGRSKKEAKNAAAKLAVEILNKEKKAVSPLLLTTTNSSEGLSMGNYIGLINRIAQKKRLTVNYEQCASGVHGPEGFHYKCKMGQKEYSIGTGSTKQEAKQLAAKLAYLQILSEETSVKSDYLSSGSFATTCESQSNSLVTSTLASESSSEGDFSADTSEINSNSDSLNSSSLLMNGLRNNQRKAKRSLAPRFDLPDMKETKYTVDKRFGMDFKEIELIGSGGFGQVFKAKHRIDGKTYVIKRVKYNNEKAEREVKALAKLDHVNIVHYNGCWDGFDYDPETSDDSLESSDYDPENSKNSSRSKTKCLFIQMEFCDKGTLEQWIEKRRGEKLDKVLALELFEQITKGVDYIHSKKLIHRDLKPSNIFLVDTKQVKIGDFGLVTSLKNDGKRTRSKGTLRYMSPEQISSQDYGKEVDLYALGLILAELLHVCDTAFETSKFFTDLRDGIISDIFDKKEKTLLQKLLSKKPEDRPNTSEILRTLTVWKKSPEKNERHTC
B2: Interleukin enhancer-binding factor 3, Q12906 1-894 (protein)
chain: MRPMRIFVNDDRHVMAKHSSVYPTQEELEAVQNMVSHTERALKAVSDWIDEQEKGSSEQAESDNMDVPPEDDSKEGAGEQKTEHMTRTLRGVMRVGLVAKGLLLKGDLDLELVLLCKEKPTTALLDKVADNLAIQLAAVTEDKYEILQSVDDAAIVIKNTKEPPLSLTIHLTSPVVREEMEKVLAGETLSVNDPPDVLDRQKCLAALASLRHAKWFQARANGLKSCVIVIRVLRDLCTRVPTWGPLRGWPLELLCEKSIGTANRPMGAGEALRRVLECLASGIVMPDGSGIYDPCEKEATDAIGHLDRQQREDITQSAQHALRLAAFGQLHKVLGMDPLPSKMPKKPKNENPVDYTVQIPPSTTYAITPMKRPMEEDGEEKSPSKKKKKIQKKEEKAEPPQAMNALMRLNQLKPGLQYKLVSQTGPVHAPIFTMSVEVDGNSFEASGPSKKTAKLHVAVKVLQDMGLPTGAEGRDSSKGEDSAEETEAKPAVVAPAPVVEAVSTPSAAFPSDATAEQGPILTKHGKNPVMELNEKRRGLKYELISETGGSHDKRFVMEVEVDGQKFQGAGSNKKVAKAYAALAALEKLFPDTPLALDANKKKRAPVPVRGGPKFAAKPHNPGFGMGGPMHNEVPPPPNLRGRGRGGSIRGRGRGRGFGGANHGGYMNAGAGYGSYGYGGNSATAGYSQFYSNGGHSGNASGGGGGGGGGSSGYGSYYQGDNYNSPVPPKHAGKKQPHGGQQKPSYGSGYQSHQGQQQSYNQSPYSNYGPPQGKQKGYNHGQGSYSYSNSYNSPGGGGGSDYNYESKFNYSGSGGRSGGNSYGSGGASYNPGSHGGYGGGSGGGSSYQGKQGGYSQSNYNSPGSGQNYSGPPSSYQSSQGGYGRNADHSMNYQYR
B3: Protein C16orf88 (protein, UniProt Q1ED39 1-458)
chain: MITKTHKVDLGLPEKKKKKKVVKEPETRYSVLNNDDYFADVSPLRATSPSKSVAHGQAPEMPLVKKKKKKKKGVSTLCEEHVEPETTLPARRTEKSPSLRKQVFGHLEFLSGEKKNKKSPLAMSHASGVKTSPDPRQGEEETRVGKKLKKHKKEKKGAQDPTAFSVQDPWFCEAREARDVGDTCSVGKKDEEQAALGQKRKRKSPREHNGKVKKKKKIHQEGDALPGHSKPSRSMESSPRKGSKKKPVKVEAPEYIPISDDPKASAKKKMKSKKKVEQPVIEEPALKRKKKKKRKESGVAGDPWKEETDTDLEVVLEKKGNMDEAHIDQVRRKALQEEIDRESGKTEASETRKWTGTQFGQWDTAGFENEDQKLKFLRLMGGFKNLSPSFSRPASTIARPNMALGKKAADSLQQNLQRDYDRAMSWKYSRGAGLGFSTAPNKIFYIDRNASKSVKLED
B4: Nucleolar protein 58 (protein, UniProt Q9Y2X3 1-529)
chain: MLVLFETSVGYAIFKVLNEKKLQEVDSLWKEFETPEKANKIVKLKHFEKFQDTAEALAAFTALMEGKINKQLKKVLKKIVKEAHEPLAVADAKLGGVIKEKLNLSCIHSPVVNELMRGIRSQMDGLIPGVEPREMAAMCLGLAHSLSRYRLKFSADKVDTMIVQAISLLDDLDKELNNYIMRCREWYGWHFPELGKIISDNLTYCKCLQKVGDRKNYASAKLSELLPEEVEAEVKAAAEISMGTEVSEEDICNILHLCTQVIEISEYRTQLYEYLQNRMMAIAPNVTVMVGELVGARLIAHAGSLLNLAKHAASTVQILGAEKALFRALKSRRDTPKYGLIYHASLVGQTSPKHKGKISRMLAAKTVLAIRYDAFGEDSSSAMGVENRAKLEARLRTLEDRGIRKISGTGKALAKTEKYEHKSEVKTYDPSGDSTLPTCSKKRKIEQVDKEDEITEKKAKKAKIKVKVEEEEEEKVAEEEETSVKKKKKRGKKKHIKEEPLSEEEPCTSTAIASPEKKKKKKKKRENED
B5: p21-activated protein kinase-interacting protein 1 (protein, UniProt Q9NWT1 1-392)
chain: MELVAGCYEQVLFGFAVHPEPEACGDHEQWTLVADFTHHAHTASLSAVAVNSRFVVTGSKDETIHIYDMKKKIEHGALVHHSGTITCLKFYGNRHLISGAEDGLICIWDAKKWECLKSIKAHKGQVTFLSIHPSGKLALSVGTDKTLRTWNLVEGRSAFIKNIKQNAHIVEWSPRGEQYVVIIQNKIDIYQLDTASISGTITNEKRISSVKFLSESVLAVAGDEEVIRFFDCDSLVCLCEFKAHENRVKDMFSFEIPEHHVIVSASSDGFIKMWKLKQDKKVPPSLLCEINTNARLTCLGVWLDKVADMKESLPPAAEPSPVSKEQSKIGKKEPGDTVHKEEKRSKPNTKKRGLTGDSKKATKESGLISTKKRKMVEMLEKKRKKKKIKTMQ

Amino acid sequences for entries named in this document (tags omitted).
UniProt P03496: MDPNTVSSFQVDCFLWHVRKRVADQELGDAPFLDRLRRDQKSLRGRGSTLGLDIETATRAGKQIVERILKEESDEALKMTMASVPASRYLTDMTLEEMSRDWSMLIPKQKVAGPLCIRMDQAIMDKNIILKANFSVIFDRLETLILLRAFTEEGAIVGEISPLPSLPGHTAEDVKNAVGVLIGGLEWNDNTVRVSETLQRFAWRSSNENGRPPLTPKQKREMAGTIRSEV

What was measured:
[1] = biological target: Influenza A virus non-structural protein 1 (NS1), strain A/Puerto Rico/8/1934(H1N1) (Influenza A virus A/Puerto Rico/8/1934(H1N1)), P03496; experiment: affinity purification with mass spectrometry; conditions: remark: other sources report otherwise
[2] = biological target: Influenza A virus non-structural protein 1 (NS1), strain A/Puerto Rico/8/1934(H1N1) (Influenza A virus A/Puerto Rico/8/1934(H1N1)) (UniProt P03496); experiment: affinity purification with mass spectrometry

Binder | binding [1] | binding [2]
B1 | binds | 
B2 | binds | 
B3 |  | binds
B4 |  | binds
B5 |  | binds
